Measured values reported in patent US20180318473A1, “DRUGS WITH IMPROVED HYDROPHOBICITY FOR INCORPORATION IN MEDICAL DEVICES” (Abraxis BioScience, LLC, priority 2005, published 2018).
For at least one compound, name, drawing or mass did not settle the structure.

Test: Hydrophobicity by relative elution time from a C18 HPLC column
Format: physicochemical
Description: To increase the penetration and retention of a drug released from a device such as a stent into the vascular wall or wall of other vessel or tissue, several drugs were modified to increase their hydrophobicity. […] […] The longer the elution time, the more hydrophobic the compound.

SMILES	HPLC retention time (min) Condition 2 (acetonitrile/water gradient 50:50 to 90:10, 1 mL/min, column temperature 35° C.)	HPLC retention time (min) Condition 2, column temperature 70° C. (acetonitrile/water gradient, 1 mL/min, **column temperature was set at 70° C.)
CC(=O)OC1C(=O)C2(C)C(O)CC3OCC3(OC(C)=O)C2C(OC(=O)c2ccccc2)C2(O)CC(OC(=O)C(OC(=O)c3ccccc3)C(NC(=O)c3ccccc3)c3ccccc3)C(C)=C1C2(C)C (centres unmarked) [Compound 1]	22.7 min	
CO[C@H]1C[C@@H]2CC[C@@H](C)[C@@](O)(O2)C(=O)C(=O)N2CCCC[C@H]2C(=O)O[C@H]([C@H](C)C[C@@H]2CC[C@@H](O)[C@H](OC)C2)CC(=O)[C@H](C)/C=C(\C)[C@@H](O)[C@@H](OC)C(=O)[C@H](C)C[C@H](C)/C=C/C=C/C=C/1C [Rapamycin, reference compound]		25.6** min
